In the supplement of paper PMC6078165:

Tested on: BT20
Test: relative JC-1 red fluorescence (viability) vs pre-drug, coculture with fibroblast (fraction); higher = more viable cancer cells
Settings: 0.1 µM
Protocol: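 JC-1 labelled TNBC cells cocultured 1:1 (1,500 cells each) with CellTrace Violet stained primary or stromal fibroblasts in 384-well plates in FluoroBrite medium, treated with one of 42 anticancer drugs at 0.1, 1, 10 or 100 uM. JC-1 red fluorescence (mitochondrial integrity in cancer cells only) was read by plate reader every 8 h for 72 h. Values are normalised to each well's pre-drug value. The stock of one drug was tenfold lower, so its dose labels may be too high.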

COc1cc([C@@H]2c3cc4c(cc3[C@@H](O[C@@H]3O[C@@H]5CO[C@@H](c6cccs6)O[C@H]5[C@H](O)[C@H]3O)[C@H]3COC(=O)[C@H]23)OCO4)cc(OC)c1O [Teniposide]
relative JC-1 red fluorescence
Settings	40 h	48 h	56 h	64 h	72 h
coculture fibroblast: C12385	–	0.751 ± 0.059	0.734 ± 0.054	0.737 ± 0.068	0.738 ± 0.085
coculture fibroblast: H6013	–	0.74 ± 0.037	0.736 ± 0.038	0.713 ± 0.036	0.706 ± 0.047
coculture fibroblast: H6019	–	0.683 ± 0.033	0.651 ± 0.025	0.62 ± 0.038	0.606 ± 0.04
coculture fibroblast: H6076	–	0.875 ± 0.051	0.906 ± 0.034	0.92 ± 0.043	0.931 ± 0.047
coculture fibroblast: H6231	–	0.677 ± 0.093	0.635 ± 0.1	0.612 ± 0.11	0.591 ± 0.11
coculture fibroblast: HADF	–	0.663 ± 0.017	0.644 ± 0.0089	0.6308 ± 0.0055	0.6066 ± 0.0044
coculture fibroblast: HCFa	–	0.7404 ± 0.0073	0.712 ± 0.012	0.6908 ± 0.0046	0.649 ± 0.0019
coculture fibroblast: HCPF	–	0.762 ± 0.051	0.718 ± 0.053	0.709 ± 0.066	0.68 ± 0.069
coculture fibroblast: HHSteC	0.745 ± 0.07	0.705 ± 0.07	0.691 ± 0.055	0.663 ± 0.03	0.627 ± 0.024
coculture fibroblast: HMF	0.703 ± 0.041	0.655 ± 0.048	0.627 ± 0.058	0.605 ± 0.062	0.577 ± 0.056
coculture fibroblast: HPFa	0.793 ± 0.012	0.752 ± 0.017	0.734 ± 0.029	0.703 ± 0.042	0.676 ± 0.046
coculture fibroblast: HUF	0.655 ± 0.05	0.617 ± 0.07	0.608 ± 0.08	0.595 ± 0.094	0.581 ± 0.1
coculture fibroblast: Hs5	0.779 ± 0.086	0.754 ± 0.097	0.739 ± 0.12	0.719 ± 0.12	0.713 ± 0.14
coculture fibroblast: Hs27A	0.887 ± 0.089	0.879 ± 0.11	0.884 ± 0.13	0.868 ± 0.14	0.839 ± 0.17
coculture fibroblast: Hs343T	0.705 ± 0.047	0.669 ± 0.022	0.627 ± 0.034	0.608 ± 0.038	0.587 ± 0.035
coculture fibroblast: WS1	0.688 ± 0.12	0.677 ± 0.13	0.66 ± 0.15	0.649 ± 0.15	0.658 ± 0.17

± gives the standard deviation of the averaged measurements. The reference is the same well before dosing, and untreated signal decays as well.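 Fibroblast labels denote human fibroblasts, mainly primary ones from uterus (C12385, HUF), lung (H6013), bone (Hs27A), adrenal (HADF) and skin (WS1), plus mammary HMF and breast cancer-associated Hs343T. Cancer cells are basal-like or mesenchymal-like triple-negative breast cancer lines. A hit is a response shift exceeding 3x replicate standard deviation. The tissue of the other fibroblasts is not given here.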
